The campaign covered roughly 220,000 compounds. About 770 (0.35%) were called active. The inconclusive results got no clear call from the source; some entries with a clear call stand among them for comparison. Rule as the data show it: active = binding response below about 49% or above about 150%; inconclusive = no clear call, values can overlap the other calls; inactive = in between.
Target: Guanine nucleotide-binding protein G(o) subunit alpha (Homo sapiens) (UniProt P09471)
Test: RGS7-Galphao binding modulators, primary screen, biochemical, multiplexed bead flow cytometry (AID 1439);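 also: fluorescent Galphao held in activated GDP-AlF4 state binding bead-coupled RGS7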
Conditions: at 10 µM, actives lie on both sides

By UniProt entry, the sequences of proteins in these tests, tags left out.
UniProt P09471, whole entry, looked up: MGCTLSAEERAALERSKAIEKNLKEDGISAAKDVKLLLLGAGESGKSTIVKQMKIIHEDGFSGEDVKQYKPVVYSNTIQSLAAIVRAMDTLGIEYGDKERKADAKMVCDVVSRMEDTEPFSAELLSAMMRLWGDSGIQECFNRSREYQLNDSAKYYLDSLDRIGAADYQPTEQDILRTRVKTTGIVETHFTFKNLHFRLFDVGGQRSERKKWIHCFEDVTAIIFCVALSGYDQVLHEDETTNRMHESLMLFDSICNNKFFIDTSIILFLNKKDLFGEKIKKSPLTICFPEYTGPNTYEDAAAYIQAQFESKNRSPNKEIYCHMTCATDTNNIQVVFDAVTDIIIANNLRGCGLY

SMILES | binding response (% of control)
FC(F)(F)c1ccc(C2[C@H]3CN(Cc4ccc(-c5ccccc5)cc4)[C@H](c4ccccc4)C34CC2(c2cccnc2)C4)cc1 (some centres not stated) | inconclusive: 102%
OC1=C(O)c2nc3cc(C(F)(F)F)ccc3nc21 | inconclusive: 105%
CCN1CCOC(CC(=O)Nc2ccc([N+](=O)[O-])cc2)C1=O (configuration not stated) | inconclusive: 109%
COc1cccc(Cl)c1NC(=O)N1CCN(c2cc(C)nc3ccccc23)CC1 | inconclusive: 96.8%
Cc1ccc(NC(=O)c2cccc(F)c2)cc1S(=O)(=O)N1CCCCCC1 | inconclusive: 115%
O=C1NC(c2ccccc2Cl)=N/C1=C/c1ccco1 | inconclusive: 38.2%
COCCOC(=O)C1=C(C)NC(C)=C(C(=O)OCCOC)C1/C=C/c1ccccc1OC | inconclusive: 101%
CCN(CC)CCn1c(=N)n(CC(=O)c2ccc(Br)s2)c2ccccc21 | inconclusive: -38.6%
COc1cc(/C=N/NC(=O)C(=O)NCc2ccco2)cc(Cl)c1O | inconclusive: 104%
CC(=O)Oc1ccccc1N1C(=O)c2ccc(C(=O)O)cc2C1=O | inactive: 93.8%
Cc1cc(C)cc(NC(=O)N2CCN(Cc3ccc4c(c3)OCO4)CC2)c1 | inconclusive: 81.6%
CCOC(=O)CNc1ccc(OC(F)(F)F)cc1 | inconclusive: 78.2%
COC(=O)c1ccc(S(=O)(=O)N(C2CCCCC2)C2CCCCC2)n1C | inconclusive: 115%
Cc1ccccc1OCC(=O)N=Nc1c(O)n(C)c2ccccc12 | inconclusive: 122%
Nc1nc(CN2CCN(c3ccccc3)CC2)nc(Nc2ccc(Cl)cc2)n1 | inconclusive: 118%
CNC(=O)c1cc(NC(=O)CCn2nc(-c3ccc(C)cc3)c3ccccc3c2=O)ccc1OC | inconclusive: 101%
CCn1c2ccccc2c2cc(NC(=O)COC(=O)c3ccccc3O)ccc21 | inconclusive: 110%
COc1ccccc1N(Cc1cc(=O)[nH]c2ccccc12)C(=O)c1cccc([N+](=O)[O-])c1 | inconclusive: 99.2%
COCCn1c(-c2cc(OC)c(OC)c(OC)c2)nc2oc3cc(OC)ccc3c(=O)c2c1=O | inconclusive: 105%
CC1CCCCC1n1c(-c2cccnc2)n[nH]c1=S (configuration not stated) | inconclusive: 114%
COC(=O)CCC(=O)NNC(=O)c1ccc(Cl)cc1Cl | active: 175% [activator]
Cc1nn(C(=O)c2c(-c3ccccc3)noc2C)c(C)c1N=Nc1cc(C(F)(F)F)cc(C(F)(F)F)c1 | inconclusive: 126%

SMILES | binding response (% of control)
O=C(NNS(=O)(=O)c1ccc(Cl)cc1Cl)c1cc2ncc(C(F)(F)F)cc2s1 | inconclusive: 69.7%
CCOc1cc(NC(=O)c2cccs2)c(OCC)cc1NC(=O)CCC(=O)NCc1ccccn1 | inconclusive: 110%
COc1ccc(-c2c(C(F)(F)F)[nH]n3c(=O)cc(-c4ccccc4)nc23)cc1 | inconclusive: 95%
C=CCN(c1ccccc1)S(=O)(=O)c1cccc2cccnc12 | inconclusive: 187%
Cn1cnc([N+](=O)[O-])c1Sc1ccc(C(C)(C)C)cc1 | inconclusive: 102%
O=C(Cn1nnc(N2CCCCC2)n1)c1ccc(Cl)c(Cl)c1 | inconclusive: 63.4%
COc1ccc(C(=O)OCC(=O)NC(=O)NC2CCCC2)c(O)c1 | inconclusive: 107%
Cc1ccc(C)c(NCCC#N)c1 | inactive: 104%
CC1CCc2c(sc3nc(CSc4nnnn4C)[nH]c(=O)c23)C1 (configuration not stated) | inconclusive: 107%
O=C(c1cccc(S(=O)(=O)N2CCOCC2)c1)N1CCN(S(=O)(=O)c2cccs2)CC1 | inconclusive: 114%
COc1cc(/C=C(\C#N)c2ccccn2)cc(OC)c1O | inconclusive: 101%
COC(=O)[C@@H]1CC[C@H](C)[C@@H](c2ccc(C)cc2)N1C(=O)c1ccc(/C=N/O[C@@H](C)CN2CCCCc3nc(C)c(C)cc32)cc1 | inactive: 97.7%
COCCCn1c(=NC(=O)c2ccccc2)c(C#N)cc2c(=O)n3cccc(C)c3nc21 | inconclusive: 110%
Cc1nn(C)c(NC(=O)c2ccc([N+](=O)[O-])cc2)c1Cl | inconclusive: 232%
CC(Sc1nc2ccccc2s1)C(=O)Nc1ccc2c(c1)OCO2 (configuration not stated) | inactive: 91.8%
CCOC(=O)c1ccc(S(=O)(=O)NCCN2CCOCC2)cc1 | inconclusive: 98.3%
O=[N+]([O-])c1ccc(/C=N/n2cn[nH]c2=S)cc1 | inconclusive: 633%
Cc1ccc(CNC(=O)CNC(=S)N(Cc2ccccc2)Cc2ccccc2F)cc1 | inconclusive: 107%
COc1cc(C2=NOC(C(=O)Nc3cc(C)on3)C2)cc(OC)c1OC (configuration not stated) | inconclusive: 130%
Cc1ccc(NC(=S)NC2CC3CCCC(C2)N3Cc2ccco2)cc1 (configuration not stated) | inconclusive: 105%
O=C(Nc1ccc(F)cc1)c1nc2c(nnn2Cc2cccc3ccccc23)c(=O)[nH]1 | inconclusive: 179%
CC(=O)N1CCOCCOCCOCC1 | inconclusive: 56.5%

SMILES | binding response (% of control)
CCC1=C(OC(=O)N(CC)CC)N2C(=O)OC(=NCCOC)[C@]2(Cc2ccccc2)[C@H]2C1=CC[C@H]1C(=O)N(CC)C(=O)[C@H]12 | inconclusive: 109%
CCc1ccccc1NC(=S)N(CCN1CCOCC1)Cc1ccccc1F | inconclusive: 90.9%
COC(=O)c1sccc1NC(=O)CC1C(=O)NCCN1C(=O)c1c(F)cccc1Cl (configuration not stated) | inconclusive: 182%
COc1cccc(-c2nnc(NC(=O)c3ccc4ncsc4c3)o2)c1 | inactive: 97.3%
Cc1cccc(OCCC(=O)Nc2ccc(F)c(Cl)c2)c1 | inactive: 97.9%
CC1CN/C(=C\C(=O)c2ccc(Cl)cc2)C(=O)N1 (configuration not stated) | inactive: 100%
CCCOc1ccc(C(=O)O)cc1 | inconclusive: -260%
CN(C)c1ccc(SC#N)cc1 | inconclusive: 198%
COC(=O)c1c(NC(=O)CSc2nnc(-c3ccco3)n2Cc2ccccc2)sc(C)c1C | inactive: 104%
COC(=O)c1cc(N=Nc2c(C)[nH]c3ccccc23)cc(C(=O)OC)c1 | inconclusive: 140%
NC(=O)N/N=C/c1c(O)ccc2oc3c(c12)CCCC3 | inconclusive: 79.4%
CC(=O)c1ccc(NC(=O)CSc2nccn2C)cc1 | inconclusive: 139%
Cc1ccc(Nc2nc(=O)c3cc([N+](=O)[O-])ccc3s2)cc1 | inconclusive: 94.1%
COc1ccc(C(=O)NCc2ccc(-n3cccc3)cc2)cc1OC | inconclusive: 88.8%
Cc1ccc(NC(=S)/C(=C(\[O-])c2ccc(C)c([N+](=O)[O-])c2)[n+]2ccccc2)cc1C | inactive: 104%
CN(c1ccccc1)S(=O)(=O)c1cc(C(=O)OCC(=O)N2CCN(C(=O)c3ccco3)CC2)ccc1Cl | inconclusive: 102%
CCC(C)Oc1nc2c(c(=O)n(C)c(=O)n2C)n1C (configuration not stated) | inconclusive: 42.2%
O=[N+]([O-])c1ccc(COc2ccccc2/C=N/O)cc1 | inactive: 90.7%
O=C(C1CCC1)N1CCN(c2ccnc3cc(Cl)ccc23)CC1 | inconclusive: 107%
N/C(=N\OC(=O)Cc1cccs1)c1ccc(Cl)cc1 | inconclusive: 58.8%
CCCCC(=O)Nc1ccc(C(=O)N2CCC(C(=O)OCC)CC2)cc1 | inactive: 105%
COc1cccc(C(=O)NN2CC(O)=C(c3nc4ccccc4n3C)C2=N)c1 | inconclusive: 112%

SMILES | binding response (% of control)
CC(C)(C)c1cc(C(=O)NCc2cc(F)cc3c2OCOC3)n(Cc2ccccc2)n1 | inconclusive: 120%
O=C(COC(=O)c1ccc(F)cc1F)Nc1ncccn1 | inconclusive: 102%
O=C(COC(=O)c1ccc2ccccc2n1)NCc1ccccc1 | inconclusive: 108%
CC(C)CCNC(=O)CN(C(=O)CCC(=O)Nc1ccccn1)c1ccc(F)c(Cl)c1 | inconclusive: 92.7%
O=C(C[n+]1cccc(/C=N/O)c1)N(Cc1ccccc1)Cc1ccccc1 | inconclusive: 91.4%
COc1cccc(C(=O)Oc2ccc(N3C(=O)CCC3=O)c(C)c2)c1 | inconclusive: 125%
COc1ccc(-c2cc(C(=O)NCC3CCCO3)c3ccccc3n2)cc1 (configuration not stated) | inconclusive: 88.2%
CN1C(=O)C(CC(=O)Nc2ccc(F)cc2)N(NC(=O)c2cccc(F)c2)C1=S (configuration not stated) | inconclusive: 102%
COc1cc(C2Nc3ccccc3NC3=C2C(=O)CC(c2ccc(OC)c(OC)c2)C3)ccc1O (configuration not stated) | inconclusive: 112%
O=S(=O)(c1ccccc1)N1CN(Cc2ccc(F)cc2)c2nc3ccccc3nc21 | inconclusive: 282%
O=C(Nc1ccc(Br)cc1)Nc1ccccc1Cl | inconclusive: -86.4%
O=C(CCC(=O)N1CCCC1)Nc1ccc([N+](=O)[O-])cc1 | inconclusive: 121%
O=c1[nH]cnc2sc3c(c12)CCC3 | inconclusive: 108%
CC1CC(=O)NN=C1c1ccc(N)c([N+](=O)[O-])c1 (configuration not stated) | inactive: 105%
CCOC(=O)c1sc(NC(=O)CN2C(=O)NC3(CCCCCCC3)C2=O)c(C(=O)OCC)c1C | inconclusive: 112%
COc1ccccc1-c1cc(=O)c2c(O)ccc([N+](=O)[O-])c2o1 | inconclusive: 92.2%
CCN(CC)S(=O)(=O)c1cc(NC(=O)Cc2n[nH]c(=O)c3ccccc23)ccc1C | inconclusive: 241%
Oc1ccc(/C=N/N(Cc2ccccc2)c2ccccc2)cc1 | inconclusive: 89.1%
COc1ccc(/C(C)=N/Nc2nc3ccccc3nc2C)cc1OC | inconclusive: -16%
COc1cccc(NC(=O)COC(=O)Cc2ccc(Cl)cc2)c1 | inconclusive: 123%
Cc1ccnc(-n2c(C)cc(/C=N/NC(=O)COc3cccc4cccnc34)c2C)c1 | inconclusive: 101%

3 of these compounds, reformatted:
SMILES	binding response (% of control)
CCN(CC)S(=O)(=O)c1cc(NC(=O)Cc2n[nH]c(=O)c3ccccc23)ccc1C	inconclusive: 241%
Oc1ccc(/C=N/N(Cc2ccccc2)c2ccccc2)cc1	inconclusive: 89.1%
COc1ccc(/C(C)=N/Nc2nc3ccccc3nc2C)cc1OC	inconclusive: -16%
